Data: patent US12059499B2, “Liposome loading” (PLUMB PHARMACEUTICALS, INC., priority 2015, dated 2024)
At least one structure is not confirmed: it was looked up by name or label, or the drawing left a doubt.

Assay: Leakage of drug from loaded liposomes, Examples 5 to 8 (method not named)
Details: liposomes loaded with 2-methoxypyridinium sulfate

Which results are given for `C[C@H]1c2cccc(O)c2C(=O)C2=C(O)[C@]3(O)C(=O)C(C(N)=O)=C(O)[C@@H](N(C)C)[C@@H]3[C@@H](O)[C@@H]21` [doxycycline]?
initial leakage: approximately 2%; released in 2300 hours: 13.34%
